In paper doi:10.1101/2020.01.09.899237 one finds binding data, which are given here for one substance.

Protein sequences, listed by entry. Tags and fused reporters are not part of them. Residues count along the entry.
UniProt Q8NHS0, residues 1-77: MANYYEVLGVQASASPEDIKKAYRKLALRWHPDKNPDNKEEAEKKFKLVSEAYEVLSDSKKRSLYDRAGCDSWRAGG

These are yes or no findings as the source states them, for the method shown.

Test [1] has as its target DnaJB8 J-domain JD_(1-77) (human) (UniProt Q8NHS0). Nature of the test: cross-linking.
For test [2] the target is unchanged. Briefly: SEC-MALS. (SEC sorts molecules by how far they enter the pores of the column.)

Consider “DnaJB8 J-domain JD_(1-77) (from UniProt Q8NHS0 1-77) (domain or fragment)”, for which the values for the binding entry in test [1] and in test [2] were “no binding (tested: 100μM)” and “no binding (tested: 5.0 mg/mL)”, respectively.
